Assay results: the supplement of paper PMC12823440, “Inhibitors supercharge kinase turnover through native proteolytic circuits” (Nature, 2025)
Where a name gives a salt, the structure may show the parent alone. The list shows a part of the results. Hit calls seldom repeat between salt and free forms of one compound.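 Kinases were expressed as nanoluciferase fusions in K562 cells and luminescence was read every 4 h between 2 and 18 h as percent of control, DMSO set to 100% and a positive control to 0%. A time point counts as decreased when the signal drops significantly (2 sigma). The hit call is the authors' own, does not follow from the count of time points alone, and its rule is not shown.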

Amino acid sequences for entries named in this document (tags omitted). A change or cut given only in a name is not applied to a line headed by its entry.
UniProt Q9UQM7, whole entry: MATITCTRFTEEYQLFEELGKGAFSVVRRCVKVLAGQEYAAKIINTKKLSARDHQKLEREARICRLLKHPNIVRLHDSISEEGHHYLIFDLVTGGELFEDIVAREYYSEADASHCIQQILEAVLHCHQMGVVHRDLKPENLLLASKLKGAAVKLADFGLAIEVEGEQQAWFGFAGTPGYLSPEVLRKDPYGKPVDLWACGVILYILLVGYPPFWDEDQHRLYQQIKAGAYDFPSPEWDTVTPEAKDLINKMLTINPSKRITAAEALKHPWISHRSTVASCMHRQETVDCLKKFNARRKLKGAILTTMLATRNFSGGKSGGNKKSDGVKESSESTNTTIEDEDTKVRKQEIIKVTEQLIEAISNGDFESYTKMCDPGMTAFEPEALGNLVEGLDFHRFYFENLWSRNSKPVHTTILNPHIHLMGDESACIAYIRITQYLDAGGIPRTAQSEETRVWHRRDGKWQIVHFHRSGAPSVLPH
UniProt Q13555: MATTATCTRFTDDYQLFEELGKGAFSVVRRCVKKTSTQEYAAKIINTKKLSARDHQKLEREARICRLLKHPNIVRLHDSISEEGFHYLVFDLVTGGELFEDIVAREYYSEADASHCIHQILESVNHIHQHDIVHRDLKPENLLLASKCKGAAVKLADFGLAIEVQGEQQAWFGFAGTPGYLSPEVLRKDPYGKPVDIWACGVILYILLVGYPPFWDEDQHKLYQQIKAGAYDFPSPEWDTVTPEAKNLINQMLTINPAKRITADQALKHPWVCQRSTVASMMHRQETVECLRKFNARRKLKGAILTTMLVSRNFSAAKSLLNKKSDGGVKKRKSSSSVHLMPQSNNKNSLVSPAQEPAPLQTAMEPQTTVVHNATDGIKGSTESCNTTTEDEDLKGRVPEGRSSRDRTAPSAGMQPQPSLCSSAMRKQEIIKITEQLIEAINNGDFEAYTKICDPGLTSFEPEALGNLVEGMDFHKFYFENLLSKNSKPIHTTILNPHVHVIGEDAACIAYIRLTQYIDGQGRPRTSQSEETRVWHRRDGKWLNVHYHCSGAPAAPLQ
UniProt Q15131: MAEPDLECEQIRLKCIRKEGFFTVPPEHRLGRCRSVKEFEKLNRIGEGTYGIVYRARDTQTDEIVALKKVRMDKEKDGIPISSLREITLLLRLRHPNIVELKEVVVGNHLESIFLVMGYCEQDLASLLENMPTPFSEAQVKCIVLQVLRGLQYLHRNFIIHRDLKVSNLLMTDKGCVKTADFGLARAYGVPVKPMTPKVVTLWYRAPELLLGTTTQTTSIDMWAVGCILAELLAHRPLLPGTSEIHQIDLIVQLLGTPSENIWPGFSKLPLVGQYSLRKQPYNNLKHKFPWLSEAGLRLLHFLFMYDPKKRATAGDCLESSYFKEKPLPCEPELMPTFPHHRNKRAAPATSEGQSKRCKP
UniProt Q00526: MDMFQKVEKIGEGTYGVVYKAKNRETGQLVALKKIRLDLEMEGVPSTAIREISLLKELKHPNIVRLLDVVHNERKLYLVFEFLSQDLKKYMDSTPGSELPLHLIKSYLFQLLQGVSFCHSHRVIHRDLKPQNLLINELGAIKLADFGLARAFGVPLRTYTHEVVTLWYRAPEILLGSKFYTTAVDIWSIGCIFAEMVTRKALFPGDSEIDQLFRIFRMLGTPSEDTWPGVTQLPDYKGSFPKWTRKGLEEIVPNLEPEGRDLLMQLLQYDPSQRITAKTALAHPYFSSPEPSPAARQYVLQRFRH
UniProt P11802: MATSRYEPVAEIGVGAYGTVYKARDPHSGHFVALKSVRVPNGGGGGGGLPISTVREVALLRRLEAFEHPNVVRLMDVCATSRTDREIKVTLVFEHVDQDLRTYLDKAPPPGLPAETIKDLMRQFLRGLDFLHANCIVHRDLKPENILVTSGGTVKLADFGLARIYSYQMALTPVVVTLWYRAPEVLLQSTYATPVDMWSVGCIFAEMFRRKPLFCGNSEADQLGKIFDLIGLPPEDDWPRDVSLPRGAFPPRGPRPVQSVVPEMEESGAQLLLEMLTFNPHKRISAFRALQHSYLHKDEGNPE
UniProt Q00535, whole entry, looked up: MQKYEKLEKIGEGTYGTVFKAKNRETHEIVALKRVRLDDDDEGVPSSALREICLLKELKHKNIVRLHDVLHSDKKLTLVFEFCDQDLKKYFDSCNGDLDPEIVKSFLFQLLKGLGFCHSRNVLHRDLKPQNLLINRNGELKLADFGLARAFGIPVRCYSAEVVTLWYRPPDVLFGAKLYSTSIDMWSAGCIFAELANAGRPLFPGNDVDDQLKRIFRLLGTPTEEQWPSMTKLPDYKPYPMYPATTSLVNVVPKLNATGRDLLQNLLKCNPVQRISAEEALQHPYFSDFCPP
UniProt P50613: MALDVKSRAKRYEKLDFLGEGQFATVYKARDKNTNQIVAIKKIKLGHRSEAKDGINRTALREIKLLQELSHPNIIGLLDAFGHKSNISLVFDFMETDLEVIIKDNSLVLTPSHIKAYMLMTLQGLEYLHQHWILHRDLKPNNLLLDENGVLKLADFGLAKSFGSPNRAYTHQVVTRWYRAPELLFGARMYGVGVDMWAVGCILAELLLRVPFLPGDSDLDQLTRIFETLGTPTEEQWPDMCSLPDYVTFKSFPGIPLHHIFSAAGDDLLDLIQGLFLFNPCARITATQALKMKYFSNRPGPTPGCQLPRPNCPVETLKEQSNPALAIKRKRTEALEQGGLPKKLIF
UniProt O96017, whole entry: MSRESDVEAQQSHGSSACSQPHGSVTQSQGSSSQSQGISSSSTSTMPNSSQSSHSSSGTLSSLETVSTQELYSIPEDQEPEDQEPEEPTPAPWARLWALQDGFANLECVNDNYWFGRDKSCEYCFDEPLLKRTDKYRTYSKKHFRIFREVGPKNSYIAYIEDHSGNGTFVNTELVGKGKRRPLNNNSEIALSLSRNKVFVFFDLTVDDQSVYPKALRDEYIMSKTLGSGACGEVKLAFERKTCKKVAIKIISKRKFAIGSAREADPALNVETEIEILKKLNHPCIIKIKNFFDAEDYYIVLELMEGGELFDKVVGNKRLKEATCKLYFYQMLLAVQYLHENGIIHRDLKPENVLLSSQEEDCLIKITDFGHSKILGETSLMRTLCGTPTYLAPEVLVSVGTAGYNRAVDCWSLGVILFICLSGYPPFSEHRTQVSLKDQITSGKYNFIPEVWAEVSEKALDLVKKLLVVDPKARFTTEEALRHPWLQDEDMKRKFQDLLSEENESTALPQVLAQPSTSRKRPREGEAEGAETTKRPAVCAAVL
UniProt P41240: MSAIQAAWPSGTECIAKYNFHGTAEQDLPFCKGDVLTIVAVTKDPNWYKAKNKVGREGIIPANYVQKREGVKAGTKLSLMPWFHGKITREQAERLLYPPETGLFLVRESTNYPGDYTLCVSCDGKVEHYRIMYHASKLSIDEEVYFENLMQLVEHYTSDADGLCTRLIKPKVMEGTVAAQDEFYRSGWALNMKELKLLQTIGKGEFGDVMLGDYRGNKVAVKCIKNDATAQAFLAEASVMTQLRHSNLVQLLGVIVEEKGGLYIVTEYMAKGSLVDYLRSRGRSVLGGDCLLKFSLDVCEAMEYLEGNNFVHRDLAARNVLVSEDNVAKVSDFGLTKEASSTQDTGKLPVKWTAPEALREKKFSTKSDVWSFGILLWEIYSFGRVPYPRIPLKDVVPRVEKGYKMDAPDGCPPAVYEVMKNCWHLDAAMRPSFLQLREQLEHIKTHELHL
UniProt P48729: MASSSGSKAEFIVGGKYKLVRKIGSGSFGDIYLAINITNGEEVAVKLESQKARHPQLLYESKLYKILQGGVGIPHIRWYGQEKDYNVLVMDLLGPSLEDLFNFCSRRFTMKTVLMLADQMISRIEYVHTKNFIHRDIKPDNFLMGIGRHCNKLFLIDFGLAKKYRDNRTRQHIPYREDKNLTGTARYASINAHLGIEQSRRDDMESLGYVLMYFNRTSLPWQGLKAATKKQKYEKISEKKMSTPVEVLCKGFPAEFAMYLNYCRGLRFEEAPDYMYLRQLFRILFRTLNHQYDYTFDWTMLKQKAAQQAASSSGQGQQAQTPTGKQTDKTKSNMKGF
UniProt P48730: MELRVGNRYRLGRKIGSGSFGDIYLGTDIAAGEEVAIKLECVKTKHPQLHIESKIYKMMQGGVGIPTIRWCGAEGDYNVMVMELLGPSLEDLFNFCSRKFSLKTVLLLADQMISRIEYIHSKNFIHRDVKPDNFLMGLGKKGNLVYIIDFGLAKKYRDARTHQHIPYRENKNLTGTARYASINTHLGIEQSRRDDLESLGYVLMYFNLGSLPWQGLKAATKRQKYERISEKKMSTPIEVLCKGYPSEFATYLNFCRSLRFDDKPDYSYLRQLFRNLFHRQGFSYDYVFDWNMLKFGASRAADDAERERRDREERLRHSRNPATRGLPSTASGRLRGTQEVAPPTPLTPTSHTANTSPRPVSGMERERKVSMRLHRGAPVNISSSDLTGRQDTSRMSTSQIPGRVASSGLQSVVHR
UniProt Q08345: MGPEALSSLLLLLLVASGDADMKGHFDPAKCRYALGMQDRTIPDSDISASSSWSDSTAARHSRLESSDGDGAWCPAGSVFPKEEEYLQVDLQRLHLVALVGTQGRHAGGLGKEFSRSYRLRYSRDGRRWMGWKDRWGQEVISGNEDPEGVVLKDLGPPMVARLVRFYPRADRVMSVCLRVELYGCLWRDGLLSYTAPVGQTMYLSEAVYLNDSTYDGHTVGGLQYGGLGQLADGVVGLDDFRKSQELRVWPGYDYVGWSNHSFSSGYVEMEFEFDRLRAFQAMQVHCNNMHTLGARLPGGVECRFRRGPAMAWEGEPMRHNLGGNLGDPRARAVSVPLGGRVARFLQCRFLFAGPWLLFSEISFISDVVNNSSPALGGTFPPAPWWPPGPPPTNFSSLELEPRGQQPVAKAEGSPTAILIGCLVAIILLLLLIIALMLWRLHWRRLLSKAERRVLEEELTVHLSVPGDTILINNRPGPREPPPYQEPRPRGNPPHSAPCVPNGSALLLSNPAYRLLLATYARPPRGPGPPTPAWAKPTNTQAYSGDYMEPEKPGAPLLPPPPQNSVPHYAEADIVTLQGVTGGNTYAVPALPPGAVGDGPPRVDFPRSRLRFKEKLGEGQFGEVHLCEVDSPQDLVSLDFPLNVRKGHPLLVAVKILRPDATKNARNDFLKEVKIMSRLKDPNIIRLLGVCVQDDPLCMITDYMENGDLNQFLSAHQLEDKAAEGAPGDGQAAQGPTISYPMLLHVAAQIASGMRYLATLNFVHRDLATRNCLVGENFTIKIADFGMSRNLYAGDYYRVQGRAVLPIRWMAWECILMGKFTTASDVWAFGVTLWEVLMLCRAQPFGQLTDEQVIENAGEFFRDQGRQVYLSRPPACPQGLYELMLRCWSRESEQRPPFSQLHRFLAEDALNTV
UniProt Q9Y463, whole entry, looked up: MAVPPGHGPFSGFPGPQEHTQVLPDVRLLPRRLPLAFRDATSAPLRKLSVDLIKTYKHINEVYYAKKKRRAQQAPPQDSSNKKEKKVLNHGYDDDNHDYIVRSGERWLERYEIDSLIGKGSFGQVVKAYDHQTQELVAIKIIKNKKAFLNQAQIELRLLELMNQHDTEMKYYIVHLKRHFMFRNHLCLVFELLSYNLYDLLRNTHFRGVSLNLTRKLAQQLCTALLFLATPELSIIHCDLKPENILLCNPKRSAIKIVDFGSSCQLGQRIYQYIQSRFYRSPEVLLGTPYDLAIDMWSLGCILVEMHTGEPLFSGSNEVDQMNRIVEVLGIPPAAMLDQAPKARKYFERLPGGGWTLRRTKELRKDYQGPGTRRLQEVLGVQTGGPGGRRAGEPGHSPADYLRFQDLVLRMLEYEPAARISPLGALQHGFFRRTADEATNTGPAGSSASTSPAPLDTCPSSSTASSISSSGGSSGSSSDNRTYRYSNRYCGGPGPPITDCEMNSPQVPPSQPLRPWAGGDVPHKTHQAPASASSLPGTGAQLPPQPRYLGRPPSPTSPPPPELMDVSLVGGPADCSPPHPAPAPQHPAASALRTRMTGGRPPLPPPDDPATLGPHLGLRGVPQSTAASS
UniProt Q92630: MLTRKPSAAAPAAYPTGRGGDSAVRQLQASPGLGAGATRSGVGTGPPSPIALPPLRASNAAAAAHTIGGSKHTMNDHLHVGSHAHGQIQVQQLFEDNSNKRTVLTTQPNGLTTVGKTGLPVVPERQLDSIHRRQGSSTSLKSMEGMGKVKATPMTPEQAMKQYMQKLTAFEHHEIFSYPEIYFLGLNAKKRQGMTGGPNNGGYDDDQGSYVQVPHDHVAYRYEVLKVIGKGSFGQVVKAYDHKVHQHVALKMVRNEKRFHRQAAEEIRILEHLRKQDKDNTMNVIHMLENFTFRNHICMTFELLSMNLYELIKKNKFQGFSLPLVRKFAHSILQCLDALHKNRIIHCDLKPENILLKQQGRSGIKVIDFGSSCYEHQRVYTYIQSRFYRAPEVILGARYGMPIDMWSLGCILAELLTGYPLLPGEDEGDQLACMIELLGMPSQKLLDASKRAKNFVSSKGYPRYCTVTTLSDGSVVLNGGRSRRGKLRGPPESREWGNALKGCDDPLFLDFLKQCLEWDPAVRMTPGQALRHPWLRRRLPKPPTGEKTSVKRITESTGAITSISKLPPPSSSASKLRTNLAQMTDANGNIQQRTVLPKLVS

Experiments:
Experiment in all cases: kinase-Nluc reporter destabilization hit call (1 = scored as downregulated) (binary); higher = compound decreases kinase abundance
Conditions in all cases: K562; 2-18 h
BRAF_V600E = test system: BRAF_V600E
BTK = BTK (UniProt Q06187)
CAMK2A = CAMK2A (UniProt Q9UQM7)
CAMK2G = CAMK2G (UniProt Q13555)
CDK10 = CDK10 (UniProt Q15131)
CDK2 = CDK2 (UniProt P24941)
CDK3 = CDK3 (UniProt Q00526)
CDK4 = CDK4 (UniProt P11802)
CDK5 = CDK5 (UniProt Q00535)
CDK6 = CDK6 (UniProt Q00534)
CDK7 = CDK7 (UniProt P50613)
CDK9 = CDK9 (UniProt P50750)
CHEK2 = CHEK2 (UniProt O96017)
CSF1R = CSF1R (UniProt P07333)
CSK = CSK (UniProt P41240)
CSNK1A1 = CSNK1A1 (UniProt P48729)
CSNK1D = CSNK1D (UniProt P48730)
DDR1 = DDR1 (UniProt Q08345)
DYRK1B = DYRK1B (UniProt Q9Y463)
DYRK2 = DYRK2 (UniProt Q92630)

SMILES	kinase-Nluc reporter destabilization hit call (BRAF_V600E)	kinase-Nluc reporter destabilization hit call (BTK)	kinase-Nluc reporter destabilization hit call (CAMK2A)	kinase-Nluc reporter destabilization hit call (CAMK2G)	kinase-Nluc reporter destabilization hit call (CDK10)	kinase-Nluc reporter destabilization hit call (CDK2)	kinase-Nluc reporter destabilization hit call (CDK3)	kinase-Nluc reporter destabilization hit call (CDK4)	kinase-Nluc reporter destabilization hit call (CDK5)	kinase-Nluc reporter destabilization hit call (CDK6)	kinase-Nluc reporter destabilization hit call (CDK7)	kinase-Nluc reporter destabilization hit call (CDK9)	kinase-Nluc reporter destabilization hit call (CHEK2)	kinase-Nluc reporter destabilization hit call (CSF1R)	kinase-Nluc reporter destabilization hit call (CSK)	kinase-Nluc reporter destabilization hit call (CSNK1A1)	kinase-Nluc reporter destabilization hit call (CSNK1D)	kinase-Nluc reporter destabilization hit call (DDR1)	kinase-Nluc reporter destabilization hit call (DYRK1B)	kinase-Nluc reporter destabilization hit call (DYRK2)
C[C@H]1O[C@@H](O[C@H]2CC[C@@]3(C)[C@@H](CC[C@]4(C)[C@@H]3C=C[C@]35OC[C@@]6(CCC(C)(C)C[C@H]63)[C@H](O)C[C@]54C)[C@]2(C)CO)[C@H](O)[C@@H](O[C@@H]2O[C@H](CO)[C@@H](O)[C@H](O)[C@H]2O)[C@H]1O [Saikosaponin D] (2.5 µM)	inactive: 0	inactive: 0	inactive: 0	inactive: 0	inactive: 0	inactive: 0	inactive: 0	inactive: 0	inactive: 0	inactive: 0	inactive: 0	inactive: 0	inactive: 0	inactive: 0	inactive: 0	inactive: 0	inactive: 0	inactive: 0	inactive: 0	inactive: 0
CC(C)(C)Cc1[nH]nc2c1[C@@](C)(c1ccccc1)C1=C(CC(C)(C)CC1=O)N2 (10 µM)	inactive: 0	inactive: 0	inactive: 0	inactive: 0	inactive: 0	inactive: 0	inactive: 0	inactive: 0	inactive: 0	inactive: 0	inactive: 0	inactive: 0	inactive: 0	inactive: 0	inactive: 0	inactive: 0	inactive: 0	inactive: 0	inactive: 0	inactive: 0
Nc1nc2c(nc(Br)n2[C@@H]2O[C@@H]3COP(=O)(O)O[C@H]3[C@H]2O)c(=O)[nH]1 [8-Bromo-cGMP (sodium)] (10 µM)	inactive: 0	inactive: 0	inactive: 0	inactive: 0	inactive: 0	inactive: 0	inactive: 0	inactive: 0	inactive: 0	inactive: 0	inactive: 0	inactive: 0	inactive: 0	inactive: 0	inactive: 0	inactive: 0	inactive: 0	inactive: 0	inactive: 0	inactive: 0
O=C(Nc1cccnc1)c1cc(-c2ccnc(F)c2)ccc1OCc1ccccc1 (10 µM)	inactive: 0	inactive: 0	inactive: 0	inactive: 0	inactive: 0	inactive: 0	inactive: 0	inactive: 0	inactive: 0	inactive: 0	inactive: 0	inactive: 0	inactive: 0	inactive: 0	inactive: 0	inactive: 0	inactive: 0	inactive: 0	inactive: 0	inactive: 0
COc1cc(-c2cc(OP(=O)(O)O)cc(-c3cc(OC)c(OC)c(OC)c3)c2)cc(OC)c1OC [Stafia-1] (10 µM)	inactive: 0	inactive: 0	inactive: 0	inactive: 0	inactive: 0	inactive: 0	inactive: 0	inactive: 0	inactive: 0	inactive: 0	inactive: 0	inactive: 0	inactive: 0	inactive: 0	inactive: 0	inactive: 0	inactive: 0	inactive: 0	inactive: 0	inactive: 0
COc1ccc(-c2cc(=O)c3c(OC)cc(OC)c(OC)c3o2)cc1 [6-Demethoxytangeretin] (10 µM)	inactive: 0	inactive: 0	inactive: 0	inactive: 0	inactive: 0	inactive: 0	inactive: 0	inactive: 0	inactive: 0	inactive: 0	inactive: 0	inactive: 0	inactive: 0	inactive: 0	inactive: 0	inactive: 0	inactive: 0	inactive: 0	inactive: 0	inactive: 0
Clc1ccc(C(c2ccc(Cl)cc2)[n+]2ccn(CC(OCc3ccc(Cl)cc3Cl)c3ccc(Cl)cc3Cl)c2)cc1 (stereo not given) [Calmidazolium chloride] (2.5 µM)	inactive: 0	inactive: 0	inactive: 0	inactive: 0	inactive: 0	inactive: 0	inactive: 0	inactive: 0	inactive: 0	inactive: 0	inactive: 0	inactive: 0	inactive: 0	inactive: 0	inactive: 0	inactive: 0	inactive: 0	inactive: 0	inactive: 0	inactive: 0
C=CC(=O)Nc1cc(Nc2nccc(-c3cn(C)c4ccccc34)n2)c(OC)cc1N(C)CCNC [AZ7550 Mesylate] (2.5 µM)	inactive: 0	inactive: 0	inactive: 0	inactive: 0	inactive: 0	inactive: 0	inactive: 0	inactive: 0	inactive: 0	inactive: 0	inactive: 0	inactive: 0	inactive: 0	inactive: 0	inactive: 0	inactive: 0	inactive: 0	inactive: 0	inactive: 0	inactive: 0
COc1ccc2c(Oc3ccc4c(C(=O)Nc5ccccc5N)cccc4c3)ccnc2c1 [Chiauranib] (10 µM)	inactive: 0	inactive: 0	inactive: 0	inactive: 0	inactive: 0	inactive: 0	inactive: 0	inactive: 0	inactive: 0	inactive: 0	inactive: 0	inactive: 0	inactive: 0	active: 1	inactive: 0	inactive: 0	inactive: 0	inactive: 0	inactive: 0	inactive: 0
O=c1cc(N2CCOCC2)oc2c(-c3ccc4c(c3)OCCO4)csc12 (2.5 µM)	inactive: 0	inactive: 0	inactive: 0	inactive: 0	inactive: 0	inactive: 0	inactive: 0	inactive: 0	inactive: 0	inactive: 0	inactive: 0	inactive: 0	inactive: 0	inactive: 0	inactive: 0	inactive: 0	inactive: 0	inactive: 0	inactive: 0	inactive: 0
CC1=C(C(=O)Nc2cc3cn[nH]c3cc2F)C(c2ccc(C(F)(F)F)cc2)CC(=O)N1 (stereo not given) (10 µM)	inactive: 0	inactive: 0	inactive: 0	inactive: 0	inactive: 0	inactive: 0	inactive: 0	inactive: 0	inactive: 0	inactive: 0	inactive: 0	inactive: 0	inactive: 0	inactive: 0	inactive: 0	inactive: 0	inactive: 0	inactive: 0	inactive: 0	inactive: 0
N#C/C(=C\c1ccc(O)c(O)c1)C(=O)O [Tyrphostin AG30] (10 µM)	inactive: 0	inactive: 0	inactive: 0	inactive: 0	inactive: 0	inactive: 0	inactive: 0	inactive: 0	inactive: 0	inactive: 0	inactive: 0	inactive: 0	inactive: 0	inactive: 0	inactive: 0	inactive: 0	inactive: 0	inactive: 0	inactive: 0	inactive: 0
C[C@@H](Nc1ncnc2[nH]c(-c3ccc(O)cc3)cc12)c1ccccc1 (2.5 µM)	inactive: 0	inactive: 0	inactive: 0	inactive: 0	inactive: 0	inactive: 0	inactive: 0	inactive: 0	inactive: 0	inactive: 0	inactive: 0	inactive: 0	inactive: 0	inactive: 0	inactive: 0	inactive: 0	inactive: 0	inactive: 0	inactive: 0	inactive: 0
CCNC(=O)C#Cc1ccc2c(C(=Nc3ccc(CN(C)C)cc3)c3ccccc3)c(O)[nH]c2c1 (2.5 µM)	inactive: 0	inactive: 0	inactive: 0	inactive: 0	inactive: 0	inactive: 0	inactive: 0	inactive: 0	inactive: 0	inactive: 0	inactive: 0	inactive: 0	inactive: 0	inactive: 0	inactive: 0	inactive: 0	inactive: 0	inactive: 0	inactive: 0	inactive: 0
COc1cc2c(cc1O)C[C@H]1c3cc(O)c(OC)cc3CC[N@@+]1(C)C2 [Phellodendrine] (10 µM)	inactive: 0	inactive: 0	inactive: 0	inactive: 0	inactive: 0	inactive: 0	inactive: 0	inactive: 0	inactive: 0	inactive: 0	inactive: 0	inactive: 0	inactive: 0	inactive: 0	inactive: 0	inactive: 0	inactive: 0	inactive: 0	inactive: 0	inactive: 0
Cc1ccc(C(=O)NC2CC2)cc1-n1ncc(C(=O)c2cccc(C#N)c2)c1N [Acumapimod] (10 µM)	inactive: 0	inactive: 0	inactive: 0	inactive: 0	inactive: 0	inactive: 0	inactive: 0	inactive: 0	inactive: 0	inactive: 0	inactive: 0	inactive: 0	inactive: 0	inactive: 0	inactive: 0	inactive: 0	inactive: 0	inactive: 0	inactive: 0	inactive: 0
O=C(Nc1cccc(-c2nc(-c3ccc(NC(=O)c4cccnc4)cc3Cl)no2)c1)Nc1ccc(NC(=O)C2CC2)c(C(F)(F)F)c1 (2.5 µM)	inactive: 0	inactive: 0	inactive: 0	inactive: 0	inactive: 0	inactive: 0	inactive: 0	inactive: 0	inactive: 0	inactive: 0	inactive: 0	inactive: 0	inactive: 0	inactive: 0	inactive: 0	inactive: 0	inactive: 0	inactive: 0	inactive: 0	inactive: 0
Fc1ccc2[nH]ccc2c1-c1nc(N2CCOCC2)c2sc(CN3CCN(CC4CC4)CC3)cc2n1 (10 µM)	inactive: 0	inactive: 0	inactive: 0	inactive: 0	inactive: 0	inactive: 0	inactive: 0	inactive: 0	inactive: 0	inactive: 0	inactive: 0	inactive: 0	inactive: 0	inactive: 0	inactive: 0	inactive: 0	inactive: 0	inactive: 0	inactive: 0	inactive: 0

For reference, part of the list above:
SMILES	kinase-Nluc reporter destabilization hit call (BRAF_V600E)	kinase-Nluc reporter destabilization hit call (BTK)	kinase-Nluc reporter destabilization hit call (CAMK2A)	kinase-Nluc reporter destabilization hit call (CAMK2G)	kinase-Nluc reporter destabilization hit call (CDK10)	kinase-Nluc reporter destabilization hit call (CDK2)	kinase-Nluc reporter destabilization hit call (CDK3)	kinase-Nluc reporter destabilization hit call (CDK4)	kinase-Nluc reporter destabilization hit call (CDK5)	kinase-Nluc reporter destabilization hit call (CDK6)	kinase-Nluc reporter destabilization hit call (CDK7)	kinase-Nluc reporter destabilization hit call (CDK9)	kinase-Nluc reporter destabilization hit call (CHEK2)	kinase-Nluc reporter destabilization hit call (CSF1R)	kinase-Nluc reporter destabilization hit call (CSK)	kinase-Nluc reporter destabilization hit call (CSNK1A1)	kinase-Nluc reporter destabilization hit call (CSNK1D)	kinase-Nluc reporter destabilization hit call (DDR1)	kinase-Nluc reporter destabilization hit call (DYRK1B)	kinase-Nluc reporter destabilization hit call (DYRK2)
Cc1ccc(C(=O)NC2CC2)cc1-n1ncc(C(=O)c2cccc(C#N)c2)c1N [Acumapimod] (10 µM)	inactive: 0	inactive: 0	inactive: 0	inactive: 0	inactive: 0	inactive: 0	inactive: 0	inactive: 0	inactive: 0	inactive: 0	inactive: 0	inactive: 0	inactive: 0	inactive: 0	inactive: 0	inactive: 0	inactive: 0	inactive: 0	inactive: 0	inactive: 0
O=C(Nc1cccc(-c2nc(-c3ccc(NC(=O)c4cccnc4)cc3Cl)no2)c1)Nc1ccc(NC(=O)C2CC2)c(C(F)(F)F)c1 (2.5 µM)	inactive: 0	inactive: 0	inactive: 0	inactive: 0	inactive: 0	inactive: 0	inactive: 0	inactive: 0	inactive: 0	inactive: 0	inactive: 0	inactive: 0	inactive: 0	inactive: 0	inactive: 0	inactive: 0	inactive: 0	inactive: 0	inactive: 0	inactive: 0
